Measured values published in PubChem BioAssay AID720533 (National Center for Advancing Translational Sciences (NCATS), 2013).
Where “and” joins values, the source holds several entries; their conditions need not be identical. Identical values can stand only once. Screen size: about 18,000 compounds; about 750 (4.2%) were called active. The shares of active, inactive and inconclusive entries below differ from those in the screen. The call rests on the fitted dose curve; tested in HEK293 cells. Potencies of inconclusive entries are doubtful fits and often do not repeat. A structure can be active in one record and inactive in another.
On the % scale 0 is the no-effect control and ±100 the full control effect; potency means the concentration at half of the fitted maximal effect.

Experiment: qHTS for Inhibitors of binding or entry into cells for Lassa Virus
Settings: Lassa virus pseudotyped entry inhibition, cell-based qHTS; activity change, negative = inhibition: at 49.2 µM (top of the series) unless noted
For `C=CCC(O)(C(=O)OC)c1ccccc1` (stereo not given), the Potency was “inactive”.
In the case of `C1CCC(C(CC2CCCCN2)C2CCCCC2)CC1` (stereo not given), the Potency is reported as inconclusive: 35.5 µM [inhibitor, single point].
In the case of `OC[C@H]1O[C@H](C#Cc2ccc(F)cc2F)C=C[C@H]1O`, the activity change, negative = inhibition is reported as inactive: -16.4% [at 8.59 µM].
For `O=C(NC1CC1)[C@@H]1C[C@@H](Sc2nc3ccccc3[nH]2)CN1CC1CCCCC1`, the Potency was inconclusive: 35.5 µM [inhibitor, single point].
With `CCc1nc(N)nc(N)c1-c1ccc(Cl)cc1` the Potency was inconclusive: 10 µM [inhibitor, single point] and inconclusive: 31.6 µM [inhibitor, single point] and inconclusive: 14.1 µM [inhibitor, full curve].
For `CC(C)[C@@H](CC(=O)N[C@@H]1CCCC[C@H]1C(=O)N[C@H](CC(=O)N[C@@H](CCC(=O)O)CC(=O)O)Cc1c[nH]c2ccccc12)NC(=O)C[C@H](Cc1c[nH]c2ccccc12)NC(=O)[C@@H]1CCCC[C@H]1N`, the Potency was “inactive”.
In the case of `C[C@@H]1CCC[C@]2(C)CCCC[C@@]12O`, the Potency is reported as “inactive”.
With `COC(=O)Nc1nc2ccc(Sc3ccccc3)cc2[nH]1` the Potency was inconclusive: 14.1 µM [inhibitor, single point].
In the case of `COc1ccc(/C=C/C(=O)c2ccc(O)cc2O)cc1`, the Potency is reported as “inactive”.
In the case of `CCCCC/C=C\C/C=C\C=C\[C@@H](O)C/C=C\CCCC(=O)O`, the Potency is reported as “inactive”.
In the case of `O=C1C=C2C=C[C@@H]3C[C@@]2(O1)[C@H]1CCCCN31`, the Potency is reported as inconclusive: 31.6 µM [inhibitor, partial curve] and inconclusive: 15.8 µM [inhibitor, single point] and inconclusive: 14.1 µM [inhibitor, partial curve].
In the case of `Cc1c(C(=O)N2CCN(C)CC2)sc2ncnc(NCC3(c4ccccc4)CCOCC3)c12`, the Potency is reported as inconclusive: 22.4 µM [inhibitor, single point].
For `C[C@@H]1OC(OC2C(OC3CC[C@@]4(C)C5CC=C6C7CC(C)(C)CC[C@@]7(C(=O)O)CCC6(C)C5(C)CCC4[C@]3(C)CO)OCC(O)C2O)C(O)C(O)C1O` (stereo not given in full), the Potency was inconclusive: 20 µM [inhibitor, single point].
For `CCOC(=O)Cn1cccc1-c1nc(-c2ccc(OC)cc2)c(-c2ccc(OC)cc2)s1`, the Potency was inconclusive: 28.2 µM [inhibitor, partial curve].
In the case of `CC(C)[C@@]1(NC(=O)[C@@H]2C[C@@H]3c4cccc5[nH]cc(c45)C[C@H]3N(C)C2)O[C@@]2(O)[C@@H]3CCCN3C(=O)[C@H](Cc3ccccc3)N2C1=O`, the Potency is reported as active: 35.5 µM and inactive.
